In publication PMC7828477, “Synthesis and Evaluation of Novel Iminosugars Prepared from Natural Amino Acids” (Molecules, 2021):

Key:
[1] = system: β-mannosidase from Helix pomatia; test: p-nitrophenyl glycoside hydrolysis, A405, […] min; format: biochemical; settings: 5000 µM; activation; 1 mM p-nitrophenyl beta-D-mannopyranoside, 20 mM NaH2PO4 pH 5.5, 37 °C
[2] = system: T1, β-glucosidase from Almonds; test: p-nitrophenyl glycoside hydrolysis, A405, […] min; format: biochemical, Prunus dulcis; settings: 5000 µM; inhibition; 1 mM p-nitrophenyl beta-D-glucopyranoside, 20 mM Na2HPO4 pH 7.3, 37 °C
T1 construct: gene almond beta-glucosidase

SMILES	β-Man [1] [%]	β-Glc [2] [%]
O=C(O)[C@H]1[C@@H]2CN[C@@H](CO)[C@@H](O)[C@@H]21 [10a, (1R,4S,5S,6S,7S)-7-carboxy-5-hydroxy-4-(hydroxymethyl)-3-azabicyclo[4.1.0]heptan-3-ium trifluoroacetate]	155	
C[C@@H]1NC[C@H]2[C@H](CO)[C@H]2[C@H]1O [6b, (1S,4S,5R,6S,7S)-7-(hydroxymethyl)-4-methyl-3-azabicyclo[4.1.0]heptan-5-ol]	148	
O=C(O)[C@@H]1[C@@H]2CN[C@@H](CO)[C@@H](O)[C@@H]21 [10b, (1R,4S,5S,6S,7R)-7-carboxy-5-hydroxy-4-(hydroxymethyl)-3-azabicyclo[4.1.0]heptan-3-ium trifluoroacetate]		39
C[C@@H]1NC[C@H]2[C@@H](CO)[C@H]2[C@H]1O [6c, (1S,4S,5R,6S,7R)-7-(hydroxymethyl)-4-methyl-3-azabicyclo[4.1.0]heptan-5-ol]		43

Structures can show the parent of a compound that is named as a salt.
